# Experimental data as given in PubChem BioAssay AID504834 (National Center for Advancing Translational Sciences (NCATS), 2011).
# Hit rate of the full screen: of about 320,000 compounds, about 22,000 (6.9%) were called active. The inconclusive results got no clear call from the source; some entries with a clear call stand among them for comparison. Calls follow the shape of the dose curve; as a rule, active = well fitted inhibition curve with a large enough effect; inconclusive = small, poorly fitted or top-dose-only effect, or another doubt; inactive = no such curve, though single readings can be large or run the other way. A potency beside an inconclusive call is a rough fit, not a confirmed value.
# Test: Primary qHTS for delayed death inhibitors of the malarial parasite plastid, 96 hour incubation
# Settings: P. falciparum luciferase reporter growth; series mostly up to 28.7 µM
# In short: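 Two-generation exposure (96 h) targets delayed-death phenotype. Reporter parasites carrying integrated firefly luciferase, in red cells at 2% hematocrit and 0.05% parasitemia final, kept at 37 C, 5% CO2; luminescence loss indicates inhibition.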
# Potency is read from the fitted curve at half-maximal effect.
row,SMILES,Potency
1,CCOc1ccc(CCNC(=O)c2cccc(C#N)c2)cc1OCC,"inconclusive: 4.15 µM [inhibitor, partial curve]"
2,c1cc2cn[nH]c2cc1NC1CCCCCC1,"inconclusive: 13.1 µM [inhibitor, partial curve, poor fit]"
3,Cc1c(Cl)cccc1Nc1nc(NCCO)c2ccccc2n1,"inconclusive: 13.1 µM [inhibitor, single point]"
4,O=C(Nc1nnc(-c2ccccc2)o1)c1ccc(Cl)cc1,"inconclusive: 13.1 µM [inhibitor, partial curve, poor fit]"
5,Cc1c(C)c2c(OCC(=O)N3CCC(C(N)=O)CC3)cc3c(c2oc1=O)CCC(C)(C)O3,"inconclusive: 0.165 µM [inhibitor, full curve, poor fit]"
6,CCCOCCOC(=O)c1[nH]c2c(c1C)C(=O)CC(c1cc(OC)ccc1OC)C2 (stereo unspecified),inactive
7,CCOc1ccc(-n2c(C)c(C(=O)OC)c3cc(O)ccc32)cc1,"inconclusive: 14.7 µM [inhibitor, partial curve, poor fit]"
8,COc1ccc(/C=N/NC(=O)c2ccncc2)cc1CN1CCN(c2ccc(F)cc2)CC1,active: 3.7 µM
9,O=[N+]([O-])c1cc2c(cc1Br)CCN2,"inconclusive: 20.8 µM [inhibitor, partial curve, poor fit]"
10,CCOC(=O)C1=C(Cn2cnc3ccccc32)NC(=O)NC1c1cc(C)ccc1C (stereo unspecified),"inconclusive: 18.5 µM [inhibitor, single point]"
11,N#C/C(C(N)=O)=c1/ccc2c(c1)N1C3=C(CCCC3)CC3CCCCC31N=2 (stereo unspecified),inactive
12,O=c1[nH][nH]c2cc(=O)n(-c3ccc(Cl)cc3)nc12,inactive
13,Cc1c(CC(=O)NCCCC(=O)O)c(=O)oc2cc3oc4c(c3cc12)CCCC4,inactive
14,O=C(CCn1cccc1)NCCc1ccc(Cl)cc1,active: 10.4 µM
15,COc1cccc(CN(C)Cc2nc3cc(C(F)(F)F)ccc3c(=O)[nH]2)c1,inactive
16,C[C@]1(C(=O)NCc2cc(F)cc(C(F)(F)F)c2)C=C[C@@H](Cc2ccccc2)N1C(=O)c1ccccc1,"inconclusive: 13.1 µM [inhibitor, single point]"
17,COC(=O)c1ccc(NC(=S)NC2CCc3ccccc32)cc1 (stereo unspecified),inactive
18,CSc1ncccc1C(=O)NCCc1ccc(S(N)(=O)=O)cc1,inactive
19,O=C(NCc1ccccc1Br)C1CCCO1 (stereo unspecified),"inconclusive: 10.4 µM [inhibitor, single point]"
20,CCN(CC(=O)Nc1cccc(F)c1)Cc1nc2ccccc2c(=O)[nH]1,"inconclusive: 9.28 µM [inhibitor, partial curve, poor fit]"
21,O=C(CSc1nnc(Cc2ccccc2)o1)NCc1ccco1,inactive
22,O=C(/C=C\c1ccc2c(c1)OCO2)Nc1nnc(SCC(=O)OCc2ccccc2)s1,inactive
23,Cc1ccc(C(=O)Oc2ccc(/C=C3\C(=N)N4N=C(N5CCOCC5)SC4=NC3=O)cc2)cc1,"inconclusive: 18.5 µM [inhibitor, single point]"
24,Clc1ccc(-c2noc(CN3CCN(c4ccccc4)CC3)n2)cc1,inactive

# Molecules above that contain two or more sulfur atoms:
row,SMILES,Potency
18,CSc1ncccc1C(=O)NCCc1ccc(S(N)(=O)=O)cc1,inactive
22,O=C(/C=C\c1ccc2c(c1)OCO2)Nc1nnc(SCC(=O)OCc2ccccc2)s1,inactive

# The list continues:

row,SMILES,Potency
1,N#CC(C#N)=C1C=CC=CN1/C(=C\c1ccccc1Cl)C(=O)c1ccccc1,inactive
2,Cc1n[nH]c(C)c1CCNCc1ccc(OCC(O)CN2CCCCC2)cc1 (stereo unspecified),"inconclusive: 1.85 µM [inhibitor, full curve]"
3,CCN(CC)CCNC(=O)c1ccc2c(c1)NC(=O)c1ccccc1S2,"inconclusive: 4.65 µM [inhibitor, partial curve]"
4,CC1CC(C)CN(S(=O)(=O)CC23CCC(CC2=O)C3(C)C)C1 (stereo unspecified),"inconclusive: 1.85 µM [inhibitor, partial curve, poor fit]"
5,CCOC(=O)C1(Cc2cccc(OC)c2)CCCN(C(=O)CCSC)C1 (stereo unspecified),active: 0.37 µM
6,CN1CCN(S(=O)(=O)c2cccc(C(=O)N(C)C(c3ccccc3)c3ccccc3)c2)CC1,"inconclusive: 3.29 µM [inhibitor, partial curve]"
7,CC(C)(C)NC(=S)N1CCC(C(=O)c2ccc(F)cc2)CC1,"inconclusive: 18.5 µM [inhibitor, single point]"
8,c1ccc(-c2nc(NCC3CCCO3)c3oc4ccccc4c3n2)cc1 (stereo unspecified),active: 14.7 µM
9,Fc1ccc(NC(=S)NNc2ncc(C(F)(F)F)cc2Cl)c(F)c1,active: 10.4 µM
10,CCOc1ccccc1N(C)C(=O)Cn1ncc2c([nH]c3ccccc32)c1=O,"inconclusive: 18.5 µM [inhibitor, single point]"
11,CCOC(=O)C1CCCN(CC(=O)/C=C2/N(C)c3ccccc3C2(C)C)C1 (stereo unspecified),"inconclusive: 18.5 µM [inhibitor, single point]"
12,CCOc1ccc2nc(SCc3ccccc3C#N)sc2c1,inactive
13,CCCCn1c(N)c(N(CCOC)C(=O)CSc2ccc([N+](=O)[O-])cc2)c(=O)[nH]c1=O,"inconclusive: 18.5 µM [inhibitor, single point]"
14,CCOC(=O)Nc1ccc2c(COC(=O)c3ccccc3O)cc(=O)oc2c1,inactive
15,O=C(NCCc1c[nH]c2ccccc12)C(=O)NCC(c1cccnc1)N1CCN(c2ccccc2)CC1 (stereo unspecified),active: 8.28 µM
16,CC(=NCCc1ccccc1)c1c(O)[nH]c(=O)[nH]c1=O,inactive
17,COc1cc2c(cc1NC(=O)COC(=O)c1ccccc1)oc1ccccc12,inactive
18,CN(Cc1nc2ccccc2n1C)S(=O)(=O)c1ccc(F)cc1,active: 4.65 µM
19,CCOc1ccc(N2C(=O)CC(SCc3nc4ccccc4[nH]3)C2=O)cc1 (stereo unspecified),"inconclusive: 1.17 µM [inhibitor, full curve, poor fit]"
20,COc1ccc(/C=C/C(=O)c2ccccc2)cc1COc1ccc(F)cc1,"inconclusive: 0.131 µM [inhibitor, full curve, poor fit]"
21,C=CCOc1ccc(C2c3c(oc4ccccc4c3=O)C(=O)N2CCCN2CCOCC2)cc1 (stereo unspecified),"inconclusive: 1.31 µM [inhibitor, partial curve]"
22,Cc1ccc(S(=O)(=O)N2CCCCC2)cc1NC(=O)CN1C(=O)CN(C)C1=O,"inconclusive: 3.7 µM [inhibitor, single point]"
23,CC(/C=C/c1ccc2c(c1)OCO2)=N\NC(=O)c1cccc([N+](=O)[O-])c1,"inconclusive: 2.62 µM [inhibitor, full curve]"
24,CCOc1cc2[nH]c(=S)n(Cc3ccc(C(=O)NCCCOC)cc3)c(=O)c2cc1OCC,"inconclusive: 18.5 µM [inhibitor, single point]"

row,SMILES,Potency
1,Cc1c(CCO)c(=O)oc2n[nH]c(-c3ccccc3)c12,"inconclusive: 8.28 µM [inhibitor, partial curve]"
2,Cc1cccn2c(CN(C)C3CCCc4ccccc43)c(C(=O)N3CCOCC3)nc12 (stereo unspecified),"inconclusive: 2.33 µM [inhibitor, single point]"
3,CC(Sc1nnc(-c2cccs2)n1-c1ccccc1)C(=O)NCc1ccc2c(c1)OCO2 (stereo unspecified),active: 10.4 µM
4,C1CCN(Cc2nnnn2C2CCCC2)CC1,"inconclusive: 2.33 µM [inhibitor, single point]"
5,Cn1ccnc1SCC(=O)c1c[nH]c2ccccc12,inactive
6,COc1ccc(NC(=O)COc2cccc3c2CCN(C)C3=O)c(OC)c1,"inconclusive: 8.28 µM [inhibitor, partial curve, poor fit]"
7,NC(=O)c1cccc2cc3ccccc3cc12,"inconclusive: 2.08 µM [inhibitor, full curve]"
8,O=C(Nc1ccc(Br)cc1)C1CCC(=O)N1Cc1ccccc1Cl (stereo unspecified),active: 10.4 µM
9,CCCCC(=O)N/N=C(/C)C1=C(C)C(C)(C)OC1=O,inactive
10,COc1cc(C(=O)NCC(=O)OCc2cc(=O)oc3c(C)c(C)ccc23)cc(OC)c1OC,inactive
11,NS(=O)(=O)c1cc(C(=O)O)c(NCc2ccco2)cc1Cl,"inconclusive: 1.9 µM [inhibitor, single point]"
12,O=C(NNc1c(F)c(F)cc(F)c1F)c1cc2ccccc2oc1=O,inactive
13,O=C(CCN1C(=O)C2C3C=CC(C3)C2C1=O)Nc1ccccn1 (stereo unspecified),inactive
14,N#Cc1nc(COc2ccc(F)cc2)oc1N1CCCCC1,inactive
15,CCc1ccc(S(=O)(=O)O)cc1,inactive
16,C#CCOCCOCCOCCNc1nc(N2CCN(C(=O)[C@H]([C@@H](C)CC)n3cc([C@@H](N)CO)nn3)CC2)nc(N2CCN(C(=O)[C@H](Cc3cc4ccccc4[nH]3)n3cc([C@@H](N)C(C)CC)nn3)CC2)n1 (stereo partly specified),"inconclusive: 9.28 µM [inhibitor, partial curve, poor fit]"
17,O=C(O)c1cccc(C(=O)Nc2cccc(NC(=O)C3CCCO3)c2)c1 (stereo unspecified),"inconclusive: 18.5 µM [inhibitor, single point]"
18,O=C(CNC1CCN(Cc2ccccc2)CC1)Nc1ccc(S(=O)(=O)N2CCCCC2)cc1,"inconclusive: 10.4 µM [inhibitor, single point]"
19,CCOC(=O)C1CCCN(Cc2ccc3c(c2)OCO3)C1 (stereo unspecified),"inconclusive: 8.28 µM [inhibitor, partial curve, poor fit]"
20,O=C(Nc1ccc(S(=O)(=O)NC2=NCCCCC2)cc1)c1ccco1,"inconclusive: 18.5 µM [inhibitor, partial curve, poor fit]"
21,COc1cc(OC)cc(-n2nc(C(=O)NCCCN3CCOCC3)c3ccccc3c2=O)c1,"inconclusive: 8.28 µM [inhibitor, partial curve]"
22,O=S(=O)(NCc1ccccn1)c1cc(OCC(F)(F)F)ccc1OCC(F)(F)F,"inconclusive: 0.0026 µM [inhibitor, full curve, poor fit]"
23,Cc1cc(-c2ccccc2)nc2cc(C(=O)NCCCn3ccnc3)nn12,"inconclusive: 0.738 µM [inhibitor, full curve, poor fit]"
